# According to PubChem BioAssay AID540276 (National Center for Advancing Translational Sciences (NCATS), 2011):
# Values joined by “and” are separate entries in the source; they are usually repeats but may differ in a detail not shown here. Identical values can stand only once. About 5,400 (1.8%) of roughly 300,000 compounds were called active. Inconclusive results, whose numbers are uncertain, are shown with a selection of clear calls. Calls come from the whole dose curve; tested in HEK293 cells. Potencies beside an inconclusive call are fits to weak or partial responses and may not hold up.
# Experiment: qHTS for inhibitors of binding or entry into cells for Marburg Virus
# Conditions: Marburg virus pseudotyped entry inhibition, cell reporter; activity change, negative = inhibition: at 37.8 µM (top of the series) unless noted
# % is set by controls: 0 for no effect and ±100 for the full control effect; potency is the fitted concentration of half-maximal effect.
SMILES,"activity change, negative = inhibition",Potency
CC(C)c1nccn1S(=O)(=O)c1cc(Cl)ccc1Cl,inactive: 19.8%,
CCC1=NN(C(=O)c2ccc([N+](=O)[O-])cc2)C(O)(c2ccccc2)C1 (configuration not stated),,"inconclusive: 25.1 µM [inhibitor, partial curve, poor fit]"
O=C(Cn1cc(C(=O)C(F)(F)F)c2ccccc21)NCc1ccco1,,"inconclusive: 5.62 µM [inhibitor, single point]"
COc1ccccc1CNCC(=O)Nc1ccc(N2CCOCC2)cc1,,"inconclusive: 20.6 µM [inhibitor, partial curve, poor fit]"
Cc1ccc2cc(C#N)c(N3CCCN(C(=O)C4CCCO4)CC3)nc2c1 (configuration not stated),inactive: 1.6%,
Cc1cc(N)n(-c2cc(C)c3ccccc3n2)n1,,"inconclusive: 10 µM [inhibitor, partial curve, poor fit]"
Cn1c2ccccc2c2c(C(=O)N3CCN(c4ccccc4)CC3)cn(C3CCCC3)c(=O)c21,,"inconclusive: 28.2 µM [inhibitor, single point]"
CCC(C(=O)NCCc1c[nH]c2ccc(C)cc12)c1ccccc1 (configuration not stated),,"inconclusive: 35.5 µM [inhibitor, single point]"
Cc1cccc(NC(=O)C(=O)NNC(=O)c2ccc(C(C)(C)C)cc2)c1,inactive: 15.6% [at 46.1 µM],
O=C(NCc1ccco1)c1cc(-c2ccccc2)nc2ccccc12,,"inconclusive: 35.5 µM [inhibitor, single point]"
COc1ccccc1NC(=O)C(=O)NCCC1CCCCN1S(=O)(=O)c1ccc(F)cc1 (configuration not stated),,"inconclusive: 11.2 µM [inhibitor, single point]"
COC(=O)c1ccccc1SCC(=O)Nc1ccc(N2CCOCC2)cc1,inactive: -22.5%,
COc1ccc(C(=O)O/N=C(\N)c2ccncc2)cc1OC,,"inconclusive: 10 µM [inhibitor, partial curve]"
O=C(NCc1ccco1)c1cccc(S(=O)(=O)N2CCc3ccccc32)c1,,"inconclusive: 35.5 µM [inhibitor, single point]"
Oc1ccccc1C1Nc2cccc3cccc(c23)N1,inactive: -1.05%,
Cc1cc(OCc2cc(C(=O)N(C)CCCN3CCOCC3)no2)cc(C)c1Cl,,"inconclusive: 35.5 µM [inhibitor, single point]"
COc1ccc(NC(=O)c2cc(S(=O)(=O)N3CCCCC3)ccc2C)cc1S(=O)(=O)N1CCOCC1,,"inconclusive: 2.24 µM [activator, full curve, poor fit]"
COc1cccc(C(=O)NC(C)C(c2cccs2)N2CCN(C)CC2)c1 (configuration not stated),,"inconclusive: 29.1 µM [inhibitor, single point]"
COc1ccc2c(c1)c(CCN)c(C)n2Cc1ccccc1,,"inconclusive: 22.4 µM [inhibitor, single point]"
Cc1ccc(OCC(=O)NC2CC(C)(C)NC(C)(C)C2)c(C)c1,inactive: -3.63% [at 46.1 µM],
Cc1c(Cl)cccc1NS(=O)(=O)c1ccc2[nH]cc(C(=O)NC3CCCC3)c(=O)c2c1,,"inconclusive: 3.98 µM [inhibitor, single point]"
CCCSc1nnc(CSc2ncccn2)n1C,inactive: 1.36%,
CCCCN(CCCC)CCNC(=O)c1cn(C)c2ccc(S(=O)(=O)N3CCOCC3)cc2c1=O,inactive: -6.58% [at 46.1 µM],
CS(=O)(=O)N(CC(=O)NCc1ccc2c(c1)OCO2)c1ccccc1,inactive: 8.93%,

SMILES,"activity change, negative = inhibition",Potency
COc1ccccc1CNC(=O)C/C(C)=N/NC(=O)Cc1ccc(OC)c(OC)c1,inactive: 17.2%,
CCCC(=O)Nc1cccc(S(=O)(=O)N(C)c2ccccc2)c1,inactive: 4.07%,
CC(=O)C1=C(c2ccc(Br)cc2)C(=O)c2ccccc2C1=O,,active: 5.17 µM
O=C1CN(CC(=O)Nc2ccc(Cl)cc2)CCN1,inactive: 13.6%,
Cc1cc(C)c(Cn2c3ccccc3c3cnn(CC(=O)N4CCCCC4)c(=O)c32)c(C)c1,inactive: -3.24% [at 46.1 µM],
O=C(c1ccc(F)cc1)N1CCN2C(=O)c3ccccc3C12c1ccc(Cl)cc1 (configuration not stated),,"inconclusive: 15.8 µM [inhibitor, partial curve, poor fit]"
CCOc1ccc(-c2cc(CCCC(=O)NCc3ccco3)no2)cc1,,"inconclusive: 6.51 µM [activator, single point]"
Cc1cccc(NC(=O)C2CCN(C(=O)c3ccc(F)cc3)CC2)n1,,"inconclusive: 35.5 µM [activator, single point]"
Cc1ccccc1NS(=O)(=O)c1cc(C(=O)N2CCc3ccccc3C2)ccc1C,,"inconclusive: 10 µM [inhibitor, partial curve, poor fit]"
O=C1CC(NS(=O)(=O)c2cccs2)CN1c1cccc(F)c1 (configuration not stated),inactive: 16.4% [at 46.1 µM],
CCn1cc(C(=O)NCCc2ccc(C)cc2)c(=O)c2cc(S(=O)(=O)N(C)C)ccc21,inactive: 9.22% [at 46.1 µM],
Cc1ccc(Nc2ncc3c(n2)CC(c2ccco2)CC3=O)c(C)c1 (configuration not stated),inactive: 7.75%,
Cc1cc(Cl)ccc1OCC(=O)Nc1ccc2oc(=O)ccc2c1,,"inconclusive: 11.2 µM [inhibitor, partial curve, poor fit]"
CCC1C/C(=C/c2ccco2)C(=O)/C(=C/c2ccco2)C1 (configuration not stated),inactive: -40.4%,
CCc1ccc2oc(C(=O)N3CCN(c4ccccc4OC)CC3)cc(=O)c2c1,,"inconclusive: 10 µM [inhibitor, partial curve, poor fit]"
Cc1cc(C(=O)COC(=O)C(C)NC(N)=O)c(C)n1Cc1ccco1 (configuration not stated),,"inconclusive: 6.31 µM [activator, single point]"
CCOc1cc(S(=O)(=O)n2ccc(C)n2)ccc1Br,,"inconclusive: 5.62 µM [activator, single point]"
CCC[C@@H]1Cc2c(sc3nc(SC)nc(N)c23)CO1,inactive: 0.456% [at 46.1 µM],
COc1ccc(CCNC(=O)CCc2c(C)nc3c(c(C)nn3-c3ccc(C)c(C)c3)c2C)c(OC)c1OC,inconclusive: 6.4% [activator] [at 46.1 µM],
CC(C)CCOc1ccc(C2=NNC(=O)CC2)cc1,inactive: 29.7% [at 46.1 µM],
Cc1nc2ccccn2c1-c1csc(Nc2ccc(C(=O)O)cc2)n1,,"inconclusive: 2 µM [inhibitor, partial curve, poor fit]"
CN1CCN(c2ccc(NC(=O)CSc3ccccc3)cc2F)CC1,,"inconclusive: 29.1 µM [inhibitor, single point]"
COc1ccnc(N=CNOCc2ccc(F)cc2Cl)c1C#N,,"inconclusive: 3.55 µM [activator, single point]"
CC1(C)CC(=O)C=C(NNC(=O)c2ccccc2)C1,inactive: 12.3%,

SMILES,"activity change, negative = inhibition",Potency
COc1ccc(C(=O)/C=C/N(C)C)cc1,,"inconclusive: 18.3 µM [activator, single point]"
Cc1noc(C)c1COC(=O)c1cnc(Cl)c(Cl)c1,,"inconclusive: 20 µM [inhibitor, partial curve, poor fit]"
NC/C=C\C(=O)O,,"inactive and inconclusive: 100 nM [inhibitor, full curve, poor fit] and inconclusive: 12.6 µM [inhibitor, single point]"
CCn1c(SCC(=O)c2cc(C)n(-c3ccc(C(=O)OC)cc3)c2C)nnc1-c1cccnc1,,"inconclusive: 5.17 µM [inhibitor, partial curve, poor fit]"
CC(OC(=O)C1CCC1)C(=O)Nc1cc(Cl)cc(Cl)c1 (configuration not stated),inactive: 0.26%,
CC(C)(C)SCCNC(=O)CSc1ccccc1,inactive: 28.2%,
COc1ccc(-n2nc(C(=O)N(C)c3cccc(C(F)(F)F)c3)c3c4ccccc4n(C)c3c2=O)cc1,inactive: 5.95% [at 46.1 µM],
COc1ccc(CCC(=O)OCC(=O)Nc2ccc(OC)c(OC)c2)cc1OC,,"inconclusive: 35.5 µM [activator, single point]"
COc1ccc(NC(=S)Nc2cc(C)[nH]n2)cc1Cl,,"inconclusive: 3.98 µM [activator, partial curve, poor fit]"
CCOC(=O)/C=c1\s/c(=C\c2c(OCC)ccc3ccccc23)c(=O)n1CC(=O)NCC1CCCO1 (configuration not stated),,"inconclusive: 1.78 µM [inhibitor, partial curve, poor fit]"
Oc1cccc(/C=N/Nc2cc(N3CCOCC3)nc(N3CCOCC3)n2)c1,,active: 2.59 µM
COC(=O)c1[nH]c2cc(C)ccc2c1NC(=O)CN1CCN(C(=O)c2ccco2)CC1,,"inconclusive: 10.3 µM [inhibitor, partial curve, poor fit]"
O=C(Nc1ccc2ccccc2c1)c1cccc2ccccc12,,"inconclusive: 10 µM [inhibitor, partial curve, poor fit]"
N#Cc1ccc(Oc2ccc(C(F)(F)F)cc2NC(=O)c2ccc(F)cc2)cc1,,"inconclusive: 35.5 µM [inhibitor, single point]"
O=C1[C@@H]2C=CC=CC2=NC(=S)N1CCN1CCC(=C(c2ccc(F)cc2)c2ccc(F)cc2)CC1,inactive: 12.9%,
c1cncc(-c2noc(-c3ccco3)n2)c1,inactive: 3.22%,
CCN(CC)S(=O)(=O)c1ccc2c(c1)nc(SCc1nc3ccsc3c(=O)[nH]1)n2CC,,"inconclusive: 0.562 µM [inhibitor, full curve, poor fit]"
Cc1nnc(NC(=O)CSc2ccc([N+](=O)[O-])cn2)s1,inactive: 24.9% [at 46.1 µM],
O=S(=O)(c1ccc(Br)cc1)c1nc(-c2ccco2)oc1SCc1ccccc1Cl,inactive: -10.1% [at 46.1 µM],
Cc1cc(C)cc(NC(=O)c2cccc(N3C(=O)C4C5C=CC(C5)C4C3=O)c2)c1 (configuration not stated),,"inconclusive: 6.31 µM [activator, single point]"
CCCCCCSC1=C(C#N)C(=O)NC2(CCCCC2)S1,,"inconclusive: 35.5 µM [inhibitor, single point]"
O=C(NNC(=S)Nc1ccccc1)c1cccs1,inactive: -14.5%,
CN(CC(=O)NC(=O)NCc1ccccc1)Cc1cccc(Cl)c1Cl,inactive: 1.61%,
O=C(Cc1ccc(Br)cc1)N1CCN(c2ccccc2O)CC1,inactive: -12.8% [at 46.1 µM],
